Laboratory results from the supplement of paper PMC10849652.
The other results are listed elsewhere or left out.

By UniProt entry, the sequences of proteins in these tests, tags left out. Where a name states a change or a piece, a line headed by the entry shows the natural chain unless it says otherwise.
UniProt Q5SW79: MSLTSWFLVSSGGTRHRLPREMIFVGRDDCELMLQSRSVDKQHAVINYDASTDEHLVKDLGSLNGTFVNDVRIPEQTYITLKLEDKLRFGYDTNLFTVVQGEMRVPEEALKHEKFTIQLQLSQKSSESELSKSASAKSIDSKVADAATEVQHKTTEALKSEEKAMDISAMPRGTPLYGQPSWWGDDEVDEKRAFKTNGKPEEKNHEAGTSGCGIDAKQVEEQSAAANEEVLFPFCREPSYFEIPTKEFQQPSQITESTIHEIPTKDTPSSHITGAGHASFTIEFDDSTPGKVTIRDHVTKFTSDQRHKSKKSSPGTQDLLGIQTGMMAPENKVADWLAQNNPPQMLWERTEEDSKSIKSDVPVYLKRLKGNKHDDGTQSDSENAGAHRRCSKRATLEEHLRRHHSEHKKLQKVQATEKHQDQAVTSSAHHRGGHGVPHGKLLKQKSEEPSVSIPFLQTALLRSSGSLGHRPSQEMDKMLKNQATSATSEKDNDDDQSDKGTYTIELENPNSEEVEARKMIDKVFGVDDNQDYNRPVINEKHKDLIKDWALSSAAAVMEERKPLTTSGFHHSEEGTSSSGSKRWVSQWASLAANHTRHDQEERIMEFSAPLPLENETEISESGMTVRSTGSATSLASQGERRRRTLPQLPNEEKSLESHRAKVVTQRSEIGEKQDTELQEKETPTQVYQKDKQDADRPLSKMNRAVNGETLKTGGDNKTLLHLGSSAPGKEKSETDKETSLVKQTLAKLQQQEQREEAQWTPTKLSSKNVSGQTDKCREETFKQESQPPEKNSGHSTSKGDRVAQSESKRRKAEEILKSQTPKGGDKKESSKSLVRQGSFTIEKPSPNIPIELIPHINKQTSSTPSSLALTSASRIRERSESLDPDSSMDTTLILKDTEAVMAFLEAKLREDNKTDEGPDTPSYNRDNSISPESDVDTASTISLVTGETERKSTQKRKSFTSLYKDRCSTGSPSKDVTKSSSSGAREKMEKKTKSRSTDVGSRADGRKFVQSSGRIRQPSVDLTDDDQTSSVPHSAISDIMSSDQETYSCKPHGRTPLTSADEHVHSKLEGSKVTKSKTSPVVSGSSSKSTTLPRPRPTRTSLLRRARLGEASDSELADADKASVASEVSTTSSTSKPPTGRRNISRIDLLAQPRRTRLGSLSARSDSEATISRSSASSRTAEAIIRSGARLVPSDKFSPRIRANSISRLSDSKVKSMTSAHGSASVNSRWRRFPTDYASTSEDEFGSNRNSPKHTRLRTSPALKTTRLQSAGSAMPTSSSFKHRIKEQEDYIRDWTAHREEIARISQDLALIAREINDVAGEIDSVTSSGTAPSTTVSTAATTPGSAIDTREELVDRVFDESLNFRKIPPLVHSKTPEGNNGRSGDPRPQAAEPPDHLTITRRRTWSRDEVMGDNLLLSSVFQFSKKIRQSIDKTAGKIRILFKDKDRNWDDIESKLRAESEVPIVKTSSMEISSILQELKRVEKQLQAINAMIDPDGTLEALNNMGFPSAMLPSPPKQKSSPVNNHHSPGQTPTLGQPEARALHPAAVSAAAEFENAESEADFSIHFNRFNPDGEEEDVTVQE
UniProt O60308: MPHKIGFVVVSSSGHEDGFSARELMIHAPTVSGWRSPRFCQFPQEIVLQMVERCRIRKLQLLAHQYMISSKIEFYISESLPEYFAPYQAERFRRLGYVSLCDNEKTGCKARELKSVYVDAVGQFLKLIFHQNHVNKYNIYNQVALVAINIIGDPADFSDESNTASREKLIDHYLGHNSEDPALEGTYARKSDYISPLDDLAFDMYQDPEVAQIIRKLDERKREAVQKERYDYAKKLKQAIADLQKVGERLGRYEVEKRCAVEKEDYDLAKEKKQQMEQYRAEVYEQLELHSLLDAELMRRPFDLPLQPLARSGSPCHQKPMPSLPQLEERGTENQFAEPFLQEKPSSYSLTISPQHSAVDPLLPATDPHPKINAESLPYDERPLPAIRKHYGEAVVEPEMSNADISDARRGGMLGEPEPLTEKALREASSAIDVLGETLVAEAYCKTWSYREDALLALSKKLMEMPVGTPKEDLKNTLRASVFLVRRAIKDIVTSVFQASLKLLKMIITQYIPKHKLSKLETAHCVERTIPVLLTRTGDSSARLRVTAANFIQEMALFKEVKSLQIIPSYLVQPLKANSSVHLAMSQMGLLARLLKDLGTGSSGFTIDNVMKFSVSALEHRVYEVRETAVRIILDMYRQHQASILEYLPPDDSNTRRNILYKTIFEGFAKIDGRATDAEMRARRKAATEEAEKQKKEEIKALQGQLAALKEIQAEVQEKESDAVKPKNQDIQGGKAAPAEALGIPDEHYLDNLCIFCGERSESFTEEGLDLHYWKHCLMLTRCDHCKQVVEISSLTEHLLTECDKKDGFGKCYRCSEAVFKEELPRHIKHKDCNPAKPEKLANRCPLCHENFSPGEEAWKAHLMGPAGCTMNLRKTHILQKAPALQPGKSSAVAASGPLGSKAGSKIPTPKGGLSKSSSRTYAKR
UniProt Q6NVV7: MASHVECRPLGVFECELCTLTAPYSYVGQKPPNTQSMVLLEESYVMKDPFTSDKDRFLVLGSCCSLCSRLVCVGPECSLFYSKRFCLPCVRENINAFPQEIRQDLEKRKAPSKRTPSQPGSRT
UniProt Q5JTW2: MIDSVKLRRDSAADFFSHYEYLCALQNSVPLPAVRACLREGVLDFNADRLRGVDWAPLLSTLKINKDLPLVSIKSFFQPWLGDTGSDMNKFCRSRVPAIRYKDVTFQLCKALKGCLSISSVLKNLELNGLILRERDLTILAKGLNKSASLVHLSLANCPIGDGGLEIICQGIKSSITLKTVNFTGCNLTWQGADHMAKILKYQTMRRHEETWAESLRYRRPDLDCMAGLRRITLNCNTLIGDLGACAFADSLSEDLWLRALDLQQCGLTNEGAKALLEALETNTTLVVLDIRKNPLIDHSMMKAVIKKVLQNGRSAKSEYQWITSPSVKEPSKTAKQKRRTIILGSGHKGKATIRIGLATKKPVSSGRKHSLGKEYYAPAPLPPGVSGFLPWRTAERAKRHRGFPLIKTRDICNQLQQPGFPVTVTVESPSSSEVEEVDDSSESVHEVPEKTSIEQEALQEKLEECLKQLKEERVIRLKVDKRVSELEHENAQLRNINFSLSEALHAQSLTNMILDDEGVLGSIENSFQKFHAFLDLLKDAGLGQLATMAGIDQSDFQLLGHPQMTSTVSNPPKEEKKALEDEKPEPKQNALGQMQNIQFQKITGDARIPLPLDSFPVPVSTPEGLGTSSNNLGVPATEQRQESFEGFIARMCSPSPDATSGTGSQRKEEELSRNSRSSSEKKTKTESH
UniProt Q9BUX1: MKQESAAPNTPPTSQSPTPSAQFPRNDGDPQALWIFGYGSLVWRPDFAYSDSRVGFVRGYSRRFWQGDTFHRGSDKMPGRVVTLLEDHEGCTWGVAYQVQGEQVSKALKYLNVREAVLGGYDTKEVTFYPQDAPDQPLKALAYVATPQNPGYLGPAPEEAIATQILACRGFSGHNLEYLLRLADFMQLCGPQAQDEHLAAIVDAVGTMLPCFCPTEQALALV
UniProt Q49AH0, whole entry, looked up: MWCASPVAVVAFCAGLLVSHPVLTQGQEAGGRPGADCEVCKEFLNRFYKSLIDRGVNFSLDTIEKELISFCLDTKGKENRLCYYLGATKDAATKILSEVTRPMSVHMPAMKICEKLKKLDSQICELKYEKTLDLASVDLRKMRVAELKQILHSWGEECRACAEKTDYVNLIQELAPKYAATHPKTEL
UniProt Q6DT37: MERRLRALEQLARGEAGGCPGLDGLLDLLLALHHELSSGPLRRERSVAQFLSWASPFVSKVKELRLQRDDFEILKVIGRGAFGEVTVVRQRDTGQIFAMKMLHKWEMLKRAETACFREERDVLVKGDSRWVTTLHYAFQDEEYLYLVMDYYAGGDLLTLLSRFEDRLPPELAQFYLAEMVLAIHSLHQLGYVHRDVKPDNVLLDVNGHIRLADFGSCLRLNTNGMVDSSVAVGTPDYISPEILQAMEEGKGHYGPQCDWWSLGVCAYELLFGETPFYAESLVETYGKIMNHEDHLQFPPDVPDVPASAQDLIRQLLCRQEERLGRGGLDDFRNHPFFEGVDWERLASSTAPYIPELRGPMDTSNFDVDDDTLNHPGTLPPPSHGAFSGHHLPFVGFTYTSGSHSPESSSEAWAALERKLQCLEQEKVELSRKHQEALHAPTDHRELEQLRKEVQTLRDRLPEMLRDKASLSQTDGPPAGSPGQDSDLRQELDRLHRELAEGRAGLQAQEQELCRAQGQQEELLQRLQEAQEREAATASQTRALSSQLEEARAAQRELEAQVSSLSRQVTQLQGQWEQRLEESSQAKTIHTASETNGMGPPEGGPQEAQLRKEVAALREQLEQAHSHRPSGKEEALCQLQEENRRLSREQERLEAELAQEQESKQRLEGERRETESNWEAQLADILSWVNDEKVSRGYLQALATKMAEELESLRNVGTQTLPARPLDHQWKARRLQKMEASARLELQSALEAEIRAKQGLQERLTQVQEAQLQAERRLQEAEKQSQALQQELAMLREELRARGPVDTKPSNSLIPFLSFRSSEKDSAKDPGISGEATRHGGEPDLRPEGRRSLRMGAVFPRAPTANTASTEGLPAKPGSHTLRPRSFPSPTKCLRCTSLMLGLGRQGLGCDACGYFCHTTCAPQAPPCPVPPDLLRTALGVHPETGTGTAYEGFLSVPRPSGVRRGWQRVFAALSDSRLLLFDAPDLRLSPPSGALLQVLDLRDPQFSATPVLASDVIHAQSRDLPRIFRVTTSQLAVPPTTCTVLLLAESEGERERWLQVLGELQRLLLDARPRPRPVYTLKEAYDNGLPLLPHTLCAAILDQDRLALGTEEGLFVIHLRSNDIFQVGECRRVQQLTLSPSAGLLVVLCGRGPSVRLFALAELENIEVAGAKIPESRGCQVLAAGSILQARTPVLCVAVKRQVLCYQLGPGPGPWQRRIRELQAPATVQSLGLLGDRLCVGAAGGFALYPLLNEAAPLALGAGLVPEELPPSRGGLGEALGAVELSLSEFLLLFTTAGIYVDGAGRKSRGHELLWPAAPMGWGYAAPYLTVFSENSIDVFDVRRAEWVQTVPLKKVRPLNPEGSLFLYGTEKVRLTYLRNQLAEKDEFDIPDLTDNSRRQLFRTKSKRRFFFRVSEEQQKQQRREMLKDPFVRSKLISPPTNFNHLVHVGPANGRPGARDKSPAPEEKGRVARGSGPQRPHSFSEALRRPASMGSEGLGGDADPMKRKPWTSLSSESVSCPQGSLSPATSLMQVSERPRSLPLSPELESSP
UniProt P07199: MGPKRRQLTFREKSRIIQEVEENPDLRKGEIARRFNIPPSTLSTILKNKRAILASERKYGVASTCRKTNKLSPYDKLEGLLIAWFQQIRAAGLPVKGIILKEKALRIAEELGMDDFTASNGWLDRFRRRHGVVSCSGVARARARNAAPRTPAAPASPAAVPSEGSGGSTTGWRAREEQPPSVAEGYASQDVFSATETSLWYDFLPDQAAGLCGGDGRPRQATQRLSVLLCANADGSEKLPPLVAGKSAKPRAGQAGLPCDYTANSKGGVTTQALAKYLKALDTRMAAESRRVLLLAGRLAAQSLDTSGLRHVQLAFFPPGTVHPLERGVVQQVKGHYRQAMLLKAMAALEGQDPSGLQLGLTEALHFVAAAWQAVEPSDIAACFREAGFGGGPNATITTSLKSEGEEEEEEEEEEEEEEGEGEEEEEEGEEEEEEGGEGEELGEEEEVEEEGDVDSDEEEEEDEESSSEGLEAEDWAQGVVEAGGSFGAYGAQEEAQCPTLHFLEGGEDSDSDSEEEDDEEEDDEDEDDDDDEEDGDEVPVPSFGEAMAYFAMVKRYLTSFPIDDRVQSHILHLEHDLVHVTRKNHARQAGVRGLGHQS

Assays:
Assay in all cases: log2 fold change, soluble protein after heating vs DMSO (PISA); higher = thermal stabilisation; K562 lysate, 10 uM; active = over 0.2 and 3.5 SD of the protein, either way, in both replicates (recomputed)
crizotinib = compound: C[C@@H](Oc1cc(-c2cnn(C3CCNCC3)c2)cnc1N)c1c(Cl)ccc(F)c1Cl [crizotinib]
Method in brief: (§1)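 Dounce homogenisation of K562 pellets in PBS pH 7.4 with 1 mM MgCl2 produced a crude extract, used at 1 mg/mL protein. Exposure to 10 μM compound lasted 30 min, and aliquots were then heated for 3 min across 48°C-58°C, pooled and brought to 0.5% NP-40 at 4°C. The supernatant after 21,000xg for 90 min was quantified by TMTpro 16plex LC-MS/MS with channel sums equalised. Duplicate values are given as log-two fold change in thermal stability relative to solvent controls.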

doramapimod = compound: Cc1ccc(-n2nc(C(C)(C)C)cc2NC(=O)Nc2ccc(OCCN3CCOCC3)c3ccccc23)cc1 [doramapimod]
Method in brief: as §1

Tubastatin A = compound: CN1CCc2c(c3ccccc3n2Cc2ccc(C(=O)NO)cc2)C1 [Tubastatin A]
Method in brief: as §1

[1] = compound: CNC(=O)C1=CC=CC=C1NC2=NC(=NC=C2Cl)NC3=C(C=C(C=C3)N4CCOCC4)OC
Method in brief: as §1

defactinib = compound: CNC(=O)c1ccc(Nc2ncc(C(F)(F)F)c(NCc3nccnc3N(C)S(C)(=O)=O)n2)cc1 [defactinib]
Method in brief: as §1

[2] = compound: CNc1nc(-c2ccc3c(N)n[nH]c3c2)cc(N2C[C@@H](C(=O)NC3CCCCC3)CC[C@H]2C)n1
Method in brief: as §1

encorafenib = compound: COC(=O)N[C@@H](C)CNc1nccc(-c2cn(C(C)C)nc2-c2cc(Cl)cc(NS(C)(=O)=O)c2F)n1 [encorafenib]
Method in brief: as §1

[3] = compound: COC(=O)[C@H](CCSC)NC(=O)C1=C(C=C(C=C1)NC[C@H](CS)N)C2=CC=CC=C2
Method in brief: as §1

[4] = compound: COc1cc2nc(-c3cc(F)ccc3O)nc(N[C@@H]3CNC[C@H]3C(C)(C)O)c2cc1OC
Method in brief: as §1

lapatinib = compound: CS(=O)(=O)CCNCc1ccc(-c2ccc3ncnc(Nc4ccc(OCc5cccc(F)c5)c(Cl)c4)c3c2)o1 [lapatinib]
Method in brief: as §1

pictilisib = compound: CS(=O)(=O)N1CCN(Cc2cc3nc(-c4cccc5[nH]ncc45)nc(N4CCOCC4)c3s2)CC1 [pictilisib]
Method in brief: as §1

duvelisib = compound: C[C@H](Nc1ncnc2nc[nH]c12)c1cc2cccc(Cl)c2c(=O)n1-c1ccccc1 [duvelisib]
Method in brief: as §1

tozasertib = compound: Cc1cc(Nc2cc(N3CCN(C)CC3)nc(Sc3ccc(NC(=O)C4CC4)cc3)n2)n[nH]1 [tozasertib]
Method in brief: as §1

bafetinib = compound: Cc1ccc(NC(=O)c2ccc(CN3CC[C@H](N(C)C)C3)c(C(F)(F)F)c2)cc1Nc1nccc(-c2cncnc2)n1 [bafetinib]
Method in brief: as §1

alvocidib = compound: CN1CC[C@H](c2c(O)cc(O)c3c(=O)cc(-c4ccccc4Cl)oc23)[C@H](O)C1 [alvocidib]
Method in brief: as §1

[5] = compound: C[C@H](C1=CC=C(C=C1)C(=O)NC2=C3C=CNC3=NC=C2)N
Method in brief: as §1

gandotinib = compound: Cc1cc(Nc2cc(CN3CCOCC3)c3nc(C)c(Cc4ccc(Cl)cc4F)n3n2)n[nH]1 [gandotinib]
Method in brief: as §1

[6] = compound: Cc1cccc(CC(=O)N2CCc3c2ccc(-c2cn(C)c4ncnc(N)c24)c3F)n1
Method in brief: as §1

alisertib = compound: COc1cc(Nc2ncc3c(n2)-c2ccc(Cl)cc2C(c2c(F)cccc2OC)=NC3)ccc1C(=O)O [alisertib]
Method in brief: as §1

gefitinib = compound: COc1cc2ncnc(Nc3ccc(F)c(Cl)c3)c2cc1OCCCN1CCOCC1 [gefitinib]
Method in brief: as §1

Measured: log2 fold change

CFL1 (UniProt E9PQB7)
inactive: crizotinib -0.22 | doramapimod 0.118

CENPJ (UniProt Q9HC77)
inactive: Tubastatin A -0.011 | [1] 0.057 | defactinib -0.069 | [2] 0.081 | encorafenib 0.029 | [3] 0.02 | [4] -0.091 | lapatinib 0.073 | pictilisib -0.034 | crizotinib -0.043 | duvelisib -0.105 | tozasertib -0.046 | doramapimod 0.073 | bafetinib -0.113

CDAN1 (UniProt H3BPZ6)
inactive: crizotinib 0.118 | doramapimod 0.059

CEP170 isoform 2 (UniProt Q5SW79)
inactive: alvocidib -0.07 | [2] 0.171 | encorafenib -0.08 | [3] 0.1 | [5] -0.058 | duvelisib -0.082 | gandotinib -0.004 | tozasertib 0.077 | [6] 0.062

CEP104 (UniProt O60308)
inactive: Tubastatin A -0.026

CDPF1 (UniProt Q6NVV7)
inactive: Tubastatin A -0.18 | crizotinib 0.047 | doramapimod 0.05

CEP78 isoform 2 (UniProt Q5JTW2)
inactive: [1] -0.001 | [2] 0.303 | crizotinib -0.036 | duvelisib 0.099 | doramapimod 0.025

CHAC1 (UniProt Q9BUX1)
inactive: defactinib 0 | [2] 0.404 | pictilisib 0.395 | crizotinib -0.036 | duvelisib 0.127 | doramapimod -0.024 | bafetinib -0.137

CDNF (UniProt Q49AH0)
inactive: encorafenib 0.035 | [3] -0.197 | [4] 0 | lapatinib -0.05 | crizotinib -0.061 | tozasertib 0.089 | doramapimod 0.05

CDC42BPG (UniProt Q6DT37)
inactive: Tubastatin A -0.032 | [2] 0.019 | alisertib 0 | [4] 0.093 | gefitinib -0.112 | lapatinib -0.08 | crizotinib -0.167 | duvelisib -0.017 | doramapimod -0.042

CENPB (UniProt P07199)
inactive: encorafenib -0.094 | [3] 0.01 | tozasertib 0.201
